From patent publication US11872270B2, “A*03 restricted peptides for use in immunotherapy against cancers and related methods” (Immatics Biotechnologies GmbH, priority 2018, dated 2024)

Test system: HLA molecules from shock-frozen tissue samples
Assay: Identification and quantitation of tumor associated peptides presented on the cell surface (HLA immunoprecipitation, LC-MS)
Design: species or system human
Details: cancer entities on which the peptide was detected by LC-MS of HLA ligands

For “102 (RLLQHTPSAR; listed as Homo sapiens) [compound 102]”, the “Peptide Presentation on cancer entities” value was “CRC”.

With “103 (SIYKKAVYR; listed as Homo sapiens) [compound 103]” the “Peptide Presentation on cancer entities” value was “CRC”.

With “104 (AVVQGLVEK; listed as Homo sapiens) [compound 104]” the “Peptide Presentation on cancer entities” value was “HNSCC”.

In the case of “106 (LLRSGLTLR; listed as Homo sapiens) [compound 106]”, the “Peptide Presentation on cancer entities” value is reported as “HCC, UEC”.

In the case of “109 (KLQNLPTLLY; listed as Homo sapiens) [compound 109]”, the “Peptide Presentation on cancer entities” value is reported as “RCC”.

“110 (IIFIPATILLK; listed as Homo sapiens) [compound 110]” was tested, and the “Peptide Presentation on cancer entities” value was “AML, HCC”.

In the case of “112 (ASLAAAVLAK; listed as Homo sapiens) [compound 112]”, the “Peptide Presentation on cancer entities” value is reported as “MEL”.

In the case of “116 (KGVKKELPQK; listed as Homo sapiens) [compound 116]”, the “Peptide Presentation on cancer entities” value is reported as “UBC”.

In the case of “117 (TVFVELWLK; listed as Homo sapiens) [compound 117]”, the “Peptide Presentation on cancer entities” value is reported as “AML”.

“118 (SLRGSFPILY; listed as Homo sapiens) [compound 118]” was tested, and the “Peptide Presentation on cancer entities” value was “CCC, MEL”.

For “121 (LLPAARATSR; listed as Homo sapiens) [compound 121]”, the “Peptide Presentation on cancer entities” value was “NSCLCsquam”.

“127 (GLAAGALLLY; listed as Homo sapiens) [compound 127]” was tested, and the “Peptide Presentation on cancer entities” value was “NSCLCsquam”.

“128 (KIKKPLSYR; listed as Homo sapiens) [compound 128]” was tested, and the “Peptide Presentation on cancer entities” value was “UEC”.

With “130 (KANSGNTFKY; listed as Homo sapiens) [compound 130]” the “Peptide Presentation on cancer entities” value was “HCC”.

In the case of “132 (ASSFRPLLSK; listed as Homo sapiens) [compound 132]”, the “Peptide Presentation on cancer entities” value is reported as “MEL”.

With “135 (TFKSVLLNK; listed as Homo sapiens) [compound 135]” the “Peptide Presentation on cancer entities” value was “RCC”.

For “137 (TVYVAMCHKF; listed as Homo sapiens) [compound 137]”, the “Peptide Presentation on cancer entities” value was “OSCAR”.

For “139 (KAIIRVIPLK; listed as Homo sapiens) [compound 139]”, the “Peptide Presentation on cancer entities” value was “CRC”.

For “140 (RLLAAGQVIR; listed as Homo sapiens) [compound 140]”, the “Peptide Presentation on cancer entities” value was “CCC, HCC, HNSCC, OSCAR”.

In the case of “141 (RLRDYISSLK; listed as Homo sapiens) [compound 141]”, the “Peptide Presentation on cancer entities” value is reported as “NHL”.

“142 (SPRVYWLGLNDR; listed as Homo sapiens) [compound 142]” was tested, and the “Peptide Presentation on cancer entities” value was “NHL”.

In the case of “143 (KTLGKIAEK; listed as Homo sapiens) [compound 143]”, the “Peptide Presentation on cancer entities” value is reported as “CCC, CRC, GBC, HNSCC, NSCLCadeno, NSCLCother, NSCLCsquam, OSCAR, PRCA”.

For “144 (PLAMLAATCNK; listed as Homo sapiens) [compound 144]”, the “Peptide Presentation on cancer entities” value was “HCC”.

“147 (KLFMPRPK; listed as Homo sapiens) [compound 147]” was tested, and the “Peptide Presentation on cancer entities” value was “GBC”.

For “148 (RIGNKGIYK; listed as Homo sapiens) [compound 148]”, the “Peptide Presentation on cancer entities” value was “AML”.

In the case of “149 (TVFLSKYLKK; listed as Homo sapiens) [compound 149]”, the “Peptide Presentation on cancer entities” value is reported as “UEC”.

For “151 (KVASFTVIGY; listed as Homo sapiens) [compound 151]”, the “Peptide Presentation on cancer entities” value was “CCC, NHL”.

In the case of “154 (TIASVLVAR; listed as Homo sapiens) [compound 154]”, the “Peptide Presentation on cancer entities” value is reported as “NHL”.

With “156 (VSLGIAVSK; listed as Homo sapiens) [compound 156]” the “Peptide Presentation on cancer entities” value was “AML, CCC, HNSCC”.

“158 (RALGVPFVPR; listed as Homo sapiens) [compound 158]” was tested, and the “Peptide Presentation on cancer entities” value was “CCC”.

“159 (LLLLPFLLY; listed as Homo sapiens) [compound 159]” was tested, and the “Peptide Presentation on cancer entities” value was “CCC”.

For “160 (RLLPGKVVWK; listed as Homo sapiens) [compound 160]”, the “Peptide Presentation on cancer entities” value was “UEC”.

With “161 (MKTLPAMLGTGK; listed as Homo sapiens) [compound 161]” the “Peptide Presentation on cancer entities” value was “HNSCC, NSCLCadeno, OSCAR”.

With “162 (LLALGAAYVY; listed as Homo sapiens) [compound 162]” the “Peptide Presentation on cancer entities” value was “UEC”.

“165 (AATIISSAK; listed as Homo sapiens) [compound 165]” was tested, and the “Peptide Presentation on cancer entities” value was “RCC”.

“168 (ATNGKVLKK; listed as Homo sapiens) [compound 168]” was tested, and the “Peptide Presentation on cancer entities” value was “GBC, HNSCC”.

“169 (ATNGKVLKKR; listed as Homo sapiens) [compound 169]” was tested, and the “Peptide Presentation on cancer entities” value was “CLL, GBM, HNSCC, UEC”.

“172 (SLLEADPFLK; listed as Homo sapiens) [compound 172]” was tested, and the “Peptide Presentation on cancer entities” value was “AML”.

“174 (KMMKRLMTVEK; listed as Homo sapiens) [compound 174]” was tested, and the “Peptide Presentation on cancer entities” value was “NSCLCother”.

“175 (VIGTTSSPK; listed as Homo sapiens) [compound 175]” was tested, and the “Peptide Presentation on cancer entities” value was “CCC, HCC”.

In the case of “176 (RLYDAYVNR; listed as Homo sapiens) [compound 176]”, the “Peptide Presentation on cancer entities” value is reported as “GBM, RCC”.

In the case of “177 (ALLGVIIAKK; listed as Homo sapiens) [compound 177]”, the “Peptide Presentation on cancer entities” value is reported as “RCC”.

“179 (KINPTASLK; listed as Homo sapiens) [compound 179]” was tested, and the “Peptide Presentation on cancer entities” value was “MEL”.

For “180 (RLKMAQESVSK; listed as Homo sapiens) [compound 180]”, the “Peptide Presentation on cancer entities” value was “MEL”.

For “181 (RVAEEILIK; listed as Homo sapiens) [compound 181]”, the “Peptide Presentation on cancer entities” value was “MEL”.

For “183 (KVYIPPIINK; listed as Homo sapiens) [compound 183]”, the “Peptide Presentation on cancer entities” value was “BRCA, HCC, HNSCC, MEL, UEC”.

In the case of “187 (KTCQVSGLLY; listed as Homo sapiens) [compound 187]”, the “Peptide Presentation on cancer entities” value is reported as “BRCA, MEL”.

For “188 (SSLPRAFQK; listed as Homo sapiens) [compound 188]”, the “Peptide Presentation on cancer entities” value was “CCC, HNSCC”.

For “190 (RSKWSNVFK; listed as Homo sapiens) [compound 190]”, the “Peptide Presentation on cancer entities” value was “CRC”.

For “191 (SLYNLGGAK; listed as Homo sapiens) [compound 191]”, the “Peptide Presentation on cancer entities” value was “HNSCC, OSCAR, UEC”.

In the case of “192 (RSYSHVVLK; listed as Homo sapiens) [compound 192]”, the “Peptide Presentation on cancer entities” value is reported as “BRCA, CRC, GBC, GBM”.

In the case of “193 (IVYPSATDKTK; listed as Homo sapiens) [compound 193]”, the “Peptide Presentation on cancer entities” value is reported as “BRCA, HNSCC”.

With “194 (PVLICLALSK; listed as Homo sapiens) [compound 194]” the “Peptide Presentation on cancer entities” value was “AML, BRCA, CCC, CLL, CRC, GBM, GC, HCC, HNSCC, MEL, NHL, NSCLCadeno, NSCLCsquam, OSCAR, PACA, RCC, SCLC, UBC, UEC”.

In the case of “195 (KLQAKVLQY; listed as Homo sapiens) [compound 195]”, the “Peptide Presentation on cancer entities” value is reported as “GBC, MEL”.

“197 (RIVDYLLEK; listed as Homo sapiens) [compound 197]” was tested, and the “Peptide Presentation on cancer entities” value was “CCC, HNSCC”.

“198 (FLYGAQTVY; listed as Homo sapiens) [compound 198]” was tested, and the “Peptide Presentation on cancer entities” value was “CLL”.

“199 (IVFPDVISK; listed as Homo sapiens) [compound 199]” was tested, and the “Peptide Presentation on cancer entities” value was “UEC”.

In the case of “202 (RLFPGLYLGY; listed as Homo sapiens) [compound 202]”, the “Peptide Presentation on cancer entities” value is reported as “HCC”.

“206 (RLYEMILQR; listed as Homo sapiens) [compound 206]” was tested, and the “Peptide Presentation on cancer entities” value was “AML, BRCA, CLL, HCC, MEL, NHL, NSCLCadeno, NSCLCsquam, OSCAR, RCC, UEC”.

With “207 (ATLNLFQIVSK; listed as Homo sapiens) [compound 207]” the “Peptide Presentation on cancer entities” value was “AML”.

With “208 (KTGWFTLLY; listed as Homo sapiens) [compound 208]” the “Peptide Presentation on cancer entities” value was “BRCA, HCC”.

For “209 (KILDRVLSRY; listed as Homo sapiens) [compound 209]”, the “Peptide Presentation on cancer entities” value was “AML”.

“211 (VSLGTPIMK; listed as Homo sapiens) [compound 211]” was tested, and the “Peptide Presentation on cancer entities” value was “AML, GBM, HNSCC, UEC”.

For “213 (KLYPTHACR; listed as Homo sapiens) [compound 213]”, the “Peptide Presentation on cancer entities” value was “BRCA”.

In the case of “217 (RVYEGDGRNSLK; listed as Homo sapiens) [compound 217]”, the “Peptide Presentation on cancer entities” value is reported as “NHL”.

“218 (KAFNQSSIFTK; listed as Homo sapiens) [compound 218]” was tested, and the “Peptide Presentation on cancer entities” value was “CCC, NHL, NSCLCadeno”.

In the case of “219 (ALERKFRQK; listed as Homo sapiens) [compound 219]”, the “Peptide Presentation on cancer entities” value is reported as “CRC, UEC”.

“221 (RLAVSTRGK; listed as Homo sapiens) [compound 221]” was tested, and the “Peptide Presentation on cancer entities” value was “NSCLCadeno”.

For “223 (GISNPITTSK; listed as Homo sapiens) [compound 223]”, the “Peptide Presentation on cancer entities” value was “HCC, HNSCC, NHL, NSCLCadeno, NSCLCother, NSCLCsquam, PRCA, RCC, UEC”.

For “224 (SLYDGFLSY; listed as Homo sapiens) [compound 224]”, the “Peptide Presentation on cancer entities” value was “GBM, NSCLCadeno”.

“226 (RVWLGKHYK; listed as Homo sapiens) [compound 226]” was tested, and the “Peptide Presentation on cancer entities” value was “BRCA, CRC, HCC, HNSCC, MEL, NSCLCother, OSCAR, SCLC, UBC, UEC”.
